These are yes or no findings as the source states them, for the method shown. Some binding calls cover weakened binding; strength is not graded here.

Chains of the proteins cited; added tags and fusions are not shown. Residues count along the entry.
UniProt P06731, residues 35-685: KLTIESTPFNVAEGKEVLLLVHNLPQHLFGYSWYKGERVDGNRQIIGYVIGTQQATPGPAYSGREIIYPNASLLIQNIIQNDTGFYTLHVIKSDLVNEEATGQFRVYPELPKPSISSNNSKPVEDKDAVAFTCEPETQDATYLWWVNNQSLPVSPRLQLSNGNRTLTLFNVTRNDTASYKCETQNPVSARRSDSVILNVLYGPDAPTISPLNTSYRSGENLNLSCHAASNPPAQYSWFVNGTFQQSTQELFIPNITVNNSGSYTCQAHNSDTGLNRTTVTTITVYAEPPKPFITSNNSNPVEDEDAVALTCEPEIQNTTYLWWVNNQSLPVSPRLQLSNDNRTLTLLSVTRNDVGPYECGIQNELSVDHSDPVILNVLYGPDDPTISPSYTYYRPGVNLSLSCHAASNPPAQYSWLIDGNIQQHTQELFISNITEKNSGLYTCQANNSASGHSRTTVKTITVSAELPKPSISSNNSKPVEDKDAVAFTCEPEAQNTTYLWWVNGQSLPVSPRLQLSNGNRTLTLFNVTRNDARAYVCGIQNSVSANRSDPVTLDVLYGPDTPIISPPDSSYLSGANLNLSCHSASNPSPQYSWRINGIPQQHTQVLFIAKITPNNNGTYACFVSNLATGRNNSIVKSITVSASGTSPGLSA

For experiment [1], the target named is 癌胚抗原 (CEA) (UniProt P06731). Nature of the experiment: double-antibody sandwich detection of CEA; detection antibody.
Experiment [2] has as its target 癌胚抗原 (CEA) (UniProt P06731). Nature of the experiment: double-antibody sandwich, magnetic bead chemiluminescence; detection antibody.

B1: 2D5-HAP (protein, human, not shown: small tags and cut ends; large carriers)
chain: VQLQESGGGLVQAGGSLRLSCVASGRTFSSHPMGWFRQAPGKEREFVAGISWSGGSTHYADSVKGRFTISRDTAKNTVYLQMNSLKPEDTAVYYCNAALSERTPIATMPSQYDYWGQGTQVTVSSHHHHHH
For B1, the binding entry in experiment [1] and in experiment [2] was “binds” each time.

(Values after CN111004328A.)
